The chains behind the UniProt entries cited, without tags or fusion partners.
UniProt Q04206, whole entry: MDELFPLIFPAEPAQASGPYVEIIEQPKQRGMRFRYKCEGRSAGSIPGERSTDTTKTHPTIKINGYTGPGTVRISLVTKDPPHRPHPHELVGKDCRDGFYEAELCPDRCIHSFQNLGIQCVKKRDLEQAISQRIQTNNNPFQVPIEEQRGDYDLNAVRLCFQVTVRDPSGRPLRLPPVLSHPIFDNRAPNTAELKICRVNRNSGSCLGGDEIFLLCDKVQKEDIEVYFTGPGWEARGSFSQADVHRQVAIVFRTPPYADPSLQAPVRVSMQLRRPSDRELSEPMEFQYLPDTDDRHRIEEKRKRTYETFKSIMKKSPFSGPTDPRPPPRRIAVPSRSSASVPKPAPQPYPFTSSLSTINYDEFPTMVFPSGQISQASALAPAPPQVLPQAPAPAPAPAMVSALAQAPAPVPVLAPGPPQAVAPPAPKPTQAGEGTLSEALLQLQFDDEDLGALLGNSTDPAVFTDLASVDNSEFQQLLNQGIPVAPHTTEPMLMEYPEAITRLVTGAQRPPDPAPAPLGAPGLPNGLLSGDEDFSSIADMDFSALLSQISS
UniProt Q04207, whole entry: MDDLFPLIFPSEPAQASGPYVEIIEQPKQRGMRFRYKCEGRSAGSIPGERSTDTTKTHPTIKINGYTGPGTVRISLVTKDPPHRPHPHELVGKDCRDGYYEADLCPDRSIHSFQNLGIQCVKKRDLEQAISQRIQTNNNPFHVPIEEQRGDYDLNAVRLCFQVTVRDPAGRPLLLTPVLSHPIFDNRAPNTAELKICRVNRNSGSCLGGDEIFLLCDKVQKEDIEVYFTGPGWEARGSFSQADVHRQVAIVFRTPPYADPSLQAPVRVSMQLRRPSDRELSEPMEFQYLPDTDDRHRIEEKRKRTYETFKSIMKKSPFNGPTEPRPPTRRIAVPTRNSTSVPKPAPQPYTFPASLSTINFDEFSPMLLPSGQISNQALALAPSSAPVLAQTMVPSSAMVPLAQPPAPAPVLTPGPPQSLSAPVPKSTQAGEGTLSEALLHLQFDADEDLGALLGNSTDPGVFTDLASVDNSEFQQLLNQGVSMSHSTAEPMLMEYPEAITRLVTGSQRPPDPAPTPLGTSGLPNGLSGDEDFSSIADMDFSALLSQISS

In paper PMC8164026:

What was measured:
His-RelA (p65) = His-RelA (p65) (UniProt Q04206); assay: EMSA; conditions: EMSA: 10 mM Tris-HCl pH 7.9, 50 mM NaCl, 1 mM MgCl2, 1 mM EDTA, 5 mM DTT, 5% glycerol, 0.5 µg poly dI.dC, 2-10 µg acetylated BSA, 10 min, room temperature; recombinant protein; protein details: His; label: 32P 5' end
[1] = molecular target: NF-kB/RelA in mouse lung nuclear extract (mouse (TNFα-treated lung)) (UniProt Q04207); assay: EMSA; conditions: plus purified NEIL2-FLAG 5-20 nM, dose dependent inhibition; EMSA: 10 mM Tris-HCl pH 7.9, 50 mM NaCl, 1 mM MgCl2, 1 mM EDTA, 5 mM DTT, 5% glycerol, 0.5 µg poly dI.dC, 2-10 µg acetylated BSA, 10 min, room temperature; protein in an extract; label: 32P 5' end
[2] = molecular target: NF-kB/RelA in mouse lung nuclear extract (mouse (TNFα-treated lung)) (UniProt Q04207); assay: competition with a labelled probe; conditions: EMSA: 10 mM Tris-HCl pH 7.9, 50 mM NaCl, 1 mM MgCl2, 1 mM EDTA, 5 mM DTT, 5% glycerol, 0.5 µg poly dI.dC, 2-10 µg acetylated BSA, 10 min, room temperature, protein in an extract
[3] = molecular target: NF-kB/RelA in mouse lung nuclear extract (mouse (TNFα-treated lung)) (UniProt Q04207); assay: EMSA supershift; conditions: anti-RelA; EMSA: 10 mM Tris-HCl pH 7.9, 50 mM NaCl, 1 mM MgCl2, 1 mM EDTA, 5 mM DTT, 5% glycerol, 0.5 µg poly dI.dC, 2-10 µg acetylated BSA, 10 min, room temperature; protein in an extract; label: 32P 5' end

GAAACACCCTGTACTCCGGGAATTTCCCTGGCCCGGAGCTCTG / CAGAGCTCCGGGCCAGGGAAATTCCCGGAGTACAGGGTGTTTA [C1-WT (mCxcl1-WT)]
binding result (His-RelA (p65)): binds
binding result [1]: binds more weakly
binding result ([2]; 100-fold unlabeled C1-WT, label: 32P 5' end): binds
binding result [3]: binds

TTTTTATCAAATGTGGGATTTTCCCATGAGTCTCAAAA (double strand) [IL6-WT (mIl6-WT)]
binding result (His-RelA (p65)): binds
binding result ([2]; 100-fold unlabeled IL6-WT, label: 32P 5' end): binds

GGACCCTGAGCTCAGAAAAGGTCCCTGGTCCACGGGCT (double strand) [C2-M]
binding result ([2]; 100-fold unlabeled C2-M vs C2-WT probe, label: 32P 5' end (probe) or unlabeled (competitor)): no binding

GAAACACCCTGTACTCCGAAAAGGTCCCTGGCCCGGAGCTCTG / CAGAGCTCGGGGCCAGGGACCTTTTCGGAGTACAGGGTGTTTC [C1-M]
binding result ([2]; 100-fold unlabeled C1-M vs C1-WT probe, label: 32P 5' end (probe) or unlabeled (competitor)): no binding

TTGCTATTAAATGTGTTCGTTTGTACAGAGTCTCAAAA (double strand) [IL6-M]
binding result ([2]; 100-fold unlabeled IL6-M vs IL6-WT probe, label: 32P 5' end (probe) or unlabeled (competitor)): no binding

GGACCCTGAGCTCAGGGAATTTCCCTGGTCCCCGGGCT (double strand) [C2-WT (mCxcl2-WT)]
binding result (His-RelA (p65)): binds
binding result ([2]; 100-fold unlabeled C2-WT, label: 32P 5' end): binds
binding result [3]: binds

For at least one entry, the source does not settle the construct or the ends of the probe. For part of these data: At least one result comes from cells or an extract, where the contact may be indirect. For part of these data: Negatives hold for the conditions tested. For part of these data: The comparison behind a weaker result is the experiment's own reference, which may not be listed here. For part of these data: At least one verdict rests on a figure or table, not on a statement of the authors.
